Experimental findings from US20040086946A1, “Methods of isolation of active compounds and activated targets” (priority 2002, published 2004) are described below.

Amino acid sequences for entries named in this document (tags omitted). Residues count along the entry.
UniProt Q86YW7, residues 25-130: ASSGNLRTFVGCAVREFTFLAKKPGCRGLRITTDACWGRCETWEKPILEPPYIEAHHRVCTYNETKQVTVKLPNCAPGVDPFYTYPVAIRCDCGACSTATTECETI
UniProt P01215, residues 25-116: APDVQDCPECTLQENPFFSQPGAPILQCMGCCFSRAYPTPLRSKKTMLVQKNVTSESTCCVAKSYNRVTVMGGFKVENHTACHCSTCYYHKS

Common to all, as to assay: extracellular 2-hybrid screen: HFRW-subunit and subunit-MC4R fusions co-expressed in HEK293 CRE-luciferase cells
The target of assay [1] is hCG glycoprotein hormone subunit (UniProt P0DN86).
Assay [2] has as its target OGH glycoprotein hormone subunit (UniProt Q86YW7).
Assay [3] has as its target alpha2 glycoprotein hormone subunit (UniProt Q96T91).

No constants are given. Whether binding was seen depends on the method and setting. Some entries that bind do so weakly or less than the wild type.

On to “alpha1 glycoprotein hormone subunit (from UniProt P01215 25-116) (ligand)”, for which the binding entry in assay [1] was “binds”.

As for “alpha2 glycoprotein hormone subunit (from UniProt Q96T91 24-129) (ligand)”, the binding entry in assay [2], in assay [3] and in assay [1] was “binds” each time.
